From article PMC8896665 come the findings set out here.

Sequences of proteins named here, by UniProt entry; tags and fusion partners are left off. A change or cut given only in a name is not applied to a line headed by its entry.
UniProt A0A0F6B1M3: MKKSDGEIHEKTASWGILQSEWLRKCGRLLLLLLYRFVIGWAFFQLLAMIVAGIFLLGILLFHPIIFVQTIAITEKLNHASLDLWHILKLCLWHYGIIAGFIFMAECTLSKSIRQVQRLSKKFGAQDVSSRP

No constants are given. Whether binding was seen depends on the method and setting. Binding seen in cells or lysates may run through a third protein. Binding calls can cover weak binding; strength is not graded here.

This assay has as its target UgtS-HA (S. Typhimurium). Briefly: pull-down; in vitro synthesised proteins mixed in 500 ul TBS containing proteoliposomes (0.12 mg/ml), room temperature 2 h; pulled down with anti-HA magnetic beads at room temperature for 2 h (UgtS-HA as bait); Western blot with anti-FLAG or anti-HA. For orientation: In western blotting, separated proteins are transferred to a membrane and probed.

Take UgtL-FLAG (from UniProt A0A0F6B1M3): the binding entry is listed as “binds”.
